Binding data for one substance are collected here from PMC10937362.

Protein sequences, listed by entry. Tags and fused reporters are not part of them. Residues count along the entry.
UniProt P05107, residues 23-769: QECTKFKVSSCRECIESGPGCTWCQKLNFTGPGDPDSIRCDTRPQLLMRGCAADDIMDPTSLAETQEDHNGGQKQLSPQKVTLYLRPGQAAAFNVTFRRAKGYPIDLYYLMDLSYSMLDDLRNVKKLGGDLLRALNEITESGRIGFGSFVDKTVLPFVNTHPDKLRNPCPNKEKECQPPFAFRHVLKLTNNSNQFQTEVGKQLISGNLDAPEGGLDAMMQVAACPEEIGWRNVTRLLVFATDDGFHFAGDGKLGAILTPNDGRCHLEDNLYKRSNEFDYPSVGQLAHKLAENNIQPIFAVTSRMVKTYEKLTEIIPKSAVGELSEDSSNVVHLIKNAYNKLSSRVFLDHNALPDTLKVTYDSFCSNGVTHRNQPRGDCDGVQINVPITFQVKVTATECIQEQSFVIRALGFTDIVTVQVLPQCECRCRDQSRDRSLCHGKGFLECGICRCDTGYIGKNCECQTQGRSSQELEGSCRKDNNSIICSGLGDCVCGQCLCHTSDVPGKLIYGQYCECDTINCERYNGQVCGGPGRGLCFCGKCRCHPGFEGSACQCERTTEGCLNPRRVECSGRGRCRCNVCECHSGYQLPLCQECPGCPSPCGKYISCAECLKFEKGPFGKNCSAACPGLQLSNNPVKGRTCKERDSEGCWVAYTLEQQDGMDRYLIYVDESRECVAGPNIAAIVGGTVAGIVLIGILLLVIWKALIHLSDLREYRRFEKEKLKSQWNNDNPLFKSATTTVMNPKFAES
UniProt O75563: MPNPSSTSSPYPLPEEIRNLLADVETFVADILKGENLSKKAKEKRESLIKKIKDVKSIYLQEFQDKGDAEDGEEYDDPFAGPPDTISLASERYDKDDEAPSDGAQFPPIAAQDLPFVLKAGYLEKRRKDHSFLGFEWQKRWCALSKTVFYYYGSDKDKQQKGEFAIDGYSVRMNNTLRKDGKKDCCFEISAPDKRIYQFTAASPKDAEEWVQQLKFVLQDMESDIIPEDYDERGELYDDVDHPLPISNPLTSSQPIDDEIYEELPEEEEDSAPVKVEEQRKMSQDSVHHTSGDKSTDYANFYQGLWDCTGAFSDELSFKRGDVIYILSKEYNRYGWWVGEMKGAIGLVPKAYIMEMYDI

The target of assay [1] is CD18 (human (endogenous in primary neutrophils and NB4)) (UniProt P05107). As to the kind of experiment: co-IP; CD18 precipitated with antibody IB4 on Protein G Dynabeads from lysates of human primary neutrophils (two donors) under resting conditions, overnight 4°C; immunoblot for CD18 and SKAP2. In general terms: Immunoblotting shows a protein as a band on a membrane.
Assay [2] shares this target. As to the kind of experiment: co-IP; CD18 precipitated with antibody IB4 on Protein G Dynabeads from lysates of NB4 Scr, KINDLIN3KO or SKAP2KO neutrophils at steady state, overnight 4°C; immunoblot for CD18, KINDLIN3, TALIN1 and SKAP2.

Results are given in words; binding and its absence hold for the method and conditions named. In cells and extracts the contact can be indirect. Some results given as binding are weak or reduced against the parent protein; the word gives no strength.

“Src kinase-associated phosphoprotein 2 (SKAP2) (from UniProt O75563 1-359)”: the binding result in assay [1] and in assay [2] was “binds” in each case.
